These are yes or no findings as the source states them, for the method shown. In cells and extracts the contact can be indirect. Some binding calls cover weakened binding; strength is not graded here.
Experiments:
[1] = biological target: bone morphogenetic protein receptor type IA (mouse (endogenous in C2C12)) (UniProt P36895); experiment: condition: only cells stimulated with 100 nM of CK2.3 for 18 h; co-IP; as a1, but C2C12 cells stimulated with 100 nM CK2.3 for 18 h before lysis; Western blot for CK2β
[2] = biological target: bone morphogenetic protein receptor type IA (mouse (endogenous in C2C12)) (UniProt P36895); experiment: co-IP; endogenous BMPRIA immunoprecipitated (rabbit polyclonal antibody on Protein G magnetic beads, overnight at 4 °C, NP-40 lysis buffer) from lysates of C2C12 cells left unstimulated or stimulated with 100 nM CK2.3 for 6 h or 12 h; Western blot for CK2β

Sequences of proteins named here, by UniProt entry; tags and fusion partners are left off. Residues count along the entry.
UniProt P36895, residues 24-532: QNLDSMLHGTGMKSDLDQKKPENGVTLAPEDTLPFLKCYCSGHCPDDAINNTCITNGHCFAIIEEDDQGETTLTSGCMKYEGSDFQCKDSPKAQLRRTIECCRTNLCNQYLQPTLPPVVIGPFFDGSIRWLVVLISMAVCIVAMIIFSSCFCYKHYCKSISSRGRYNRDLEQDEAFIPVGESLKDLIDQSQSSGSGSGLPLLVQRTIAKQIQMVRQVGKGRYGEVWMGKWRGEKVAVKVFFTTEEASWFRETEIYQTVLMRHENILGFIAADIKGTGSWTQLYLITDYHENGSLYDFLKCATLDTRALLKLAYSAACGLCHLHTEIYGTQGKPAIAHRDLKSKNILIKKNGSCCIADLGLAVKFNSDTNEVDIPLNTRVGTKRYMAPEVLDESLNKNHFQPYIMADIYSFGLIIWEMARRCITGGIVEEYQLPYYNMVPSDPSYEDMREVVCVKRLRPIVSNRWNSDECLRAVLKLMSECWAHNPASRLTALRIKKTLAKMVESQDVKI
UniProt P67871: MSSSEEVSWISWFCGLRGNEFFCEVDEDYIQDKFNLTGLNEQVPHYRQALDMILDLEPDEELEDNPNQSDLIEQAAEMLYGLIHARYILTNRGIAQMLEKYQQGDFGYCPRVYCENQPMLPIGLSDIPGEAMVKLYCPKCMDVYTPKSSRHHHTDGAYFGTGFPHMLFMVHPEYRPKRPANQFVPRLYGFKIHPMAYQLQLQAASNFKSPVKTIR

binding [1]: no binding
binding [2]: binds
Substance: Protein Kinase 2- regulatory subunit β (from UniProt P67871 1-215)
